This test concerns the target T1, N-terminal GST-tagged HMGS with 1 C-terminal SH3 peptide ligand (Saccharomyces cerevisiae) (UniProt P54839).
T1 sequence: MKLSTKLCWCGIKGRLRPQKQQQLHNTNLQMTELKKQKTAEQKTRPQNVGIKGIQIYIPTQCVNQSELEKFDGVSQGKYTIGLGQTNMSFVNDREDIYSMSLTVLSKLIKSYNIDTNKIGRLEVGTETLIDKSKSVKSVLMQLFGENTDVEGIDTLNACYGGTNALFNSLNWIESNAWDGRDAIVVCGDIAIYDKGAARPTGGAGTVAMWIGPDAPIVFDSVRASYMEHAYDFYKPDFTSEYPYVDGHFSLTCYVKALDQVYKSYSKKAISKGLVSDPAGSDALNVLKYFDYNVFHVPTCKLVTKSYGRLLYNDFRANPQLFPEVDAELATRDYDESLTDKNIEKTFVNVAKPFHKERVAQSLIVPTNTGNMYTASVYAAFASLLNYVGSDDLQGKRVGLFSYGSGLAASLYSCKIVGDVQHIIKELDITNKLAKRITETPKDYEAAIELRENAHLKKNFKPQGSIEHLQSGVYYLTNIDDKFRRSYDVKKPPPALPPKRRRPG
The test can be described thus: GST pull-down, GST-HMGS as bait.

Protein sequences, listed by entry. Tags and fused reporters are not part of them. Lines headed by an entry give the natural chain unless they say otherwise; changes in a name come on top.
UniProt Q64010: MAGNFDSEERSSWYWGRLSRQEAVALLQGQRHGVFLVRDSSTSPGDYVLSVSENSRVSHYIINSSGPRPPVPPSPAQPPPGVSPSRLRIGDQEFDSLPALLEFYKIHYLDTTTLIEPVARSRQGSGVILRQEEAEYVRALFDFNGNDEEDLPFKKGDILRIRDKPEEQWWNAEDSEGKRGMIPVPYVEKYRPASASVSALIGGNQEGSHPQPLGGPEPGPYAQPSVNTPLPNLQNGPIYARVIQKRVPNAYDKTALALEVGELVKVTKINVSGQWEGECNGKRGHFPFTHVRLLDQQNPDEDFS

Results are given in words; binding and its absence hold for the method and conditions named. Binding seen in cells or lysates may run through a third protein. Some results given as binding are weak or reduced against the parent protein; the word gives no strength. Sequences can lack the tags named with a protein.

These results are taken from patent US20110008829A1.

With “HMGR with an N-terminal SH3 domain (from UniProt Q64010 134-191; P12683 554-1054) (enzyme)”, the binding result is on record as “binds”.
